In the supplement of paper PMC8728848:
The list shows a part of the results.

How the values were obtained:
Assay in all cases: glycan array binding signal (z-score within array); higher = stronger binding
Details in all cases: glycan notation: IUPAC condensed, linker removed
[1] = target: GlcNAc(b1-3)Gal(b1-4)GlcNAc(b1-3)Gal(b1-4)GlcNAc(b1-3)GalNAc
Summary of the method: (§1)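 Columns mapping to the same glycan were averaged after glycan names were converted to IUPAC-condensed notation. The data come from 3228 arrays in the Consortium for Functional Glycomics database, limited to those with an available protein sequence. Binding is reported as a within-array Z-score averaged across arrays of one protein sequence and across linkers.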

[2] = target: GlcNAc(b1-3)Gal(b1-4)GlcNAc(b1-3)GalNAc
Summary of the method: as §1

[3] = target: GlcNAc(b1-3)Gal(b1-4)GlcNAc(b1-3)[GlcNAc(b1-3)Gal(b1-4)GlcNAc(b1-3)]GalNAc
Summary of the method: as §1

[4] = target: GlcNAc(b1-3)Gal(b1-4)GlcNAc(b1-6)[Gal(b1-3)]GalNAc
Summary of the method: as §1

[5] = target: GlcNAc(b1-3)Gal(b1-4)GlcNAc(b1-6)[GlcNAc(b1-3)Gal(b1-3)]GalNAc
Summary of the method: as §1

[6] = target: GlcNAc(b1-3)Gal(b1-4)GlcNAc(b1-6)[GlcNAc(b1-3)]Gal(b1-4)GlcNAc
Summary of the method: as §1

GlcNAc(b1-3)GalNAc = target: GlcNAc(b1-3)GalNAc
Summary of the method: as §1

GlcNAc(b1-3)Man = target: GlcNAc(b1-3)Man
Summary of the method: as §1

[7] = target: GlcNAc(b1-3)[GlcNAc(b1-4)][GlcNAc(b1-6)]GlcNAc
Summary of the method: as §1

[8] = target: GlcNAc(b1-3)[GlcNAc(b1-6)]Gal(b1-4)GlcNAc
Summary of the method: as §1

[9] = target: GlcNAc(b1-3)[GlcNAc(b1-6)]GalNAc
Summary of the method: as §1

[10] = target: GlcNAc(b1-4)Gal(b1-4)GlcNAc
Summary of the method: as §1

GlcNAc(b1-4)GlcNAc = target: GlcNAc(b1-4)GlcNAc
Summary of the method: as §1

[11] = target: GlcNAc(b1-4)GlcNAc(b1-4)GlcNAc
Summary of the method: as §1

[12] = target: GlcNAc(b1-4)GlcNAc(b1-4)GlcNAc(b1-4)GlcNAc(b1-4)GlcNAc
Summary of the method: as §1

[13] = target: GlcNAc(b1-4)GlcNAc(b1-4)GlcNAc(b1-4)GlcNAc(b1-4)GlcNAc(b1-4)GlcNAc
Summary of the method: as §1

[14] = target: GlcNAc(b1-4)[GlcNAc(b1-6)]GalNAc
Summary of the method: as §1

[15] = target: GlcNAc(b1-6)Gal(b1-4)GlcNAc
Summary of the method: as §1

GlcNAc(b1-6)GalNAc = target: GlcNAc(b1-6)GalNAc
Summary of the method: as §1

[16] = target: GlcNAc6S(b1-3)Gal(b1-4)GlcNAc
Summary of the method: as §1

Kdn(a2-3)Gal(b1-3)GalNAc = target: Kdn(a2-3)Gal(b1-3)GalNAc
Summary of the method: as §1

Kdn(a2-3)Gal(b1-3)GlcNAc = target: Kdn(a2-3)Gal(b1-3)GlcNAc
Summary of the method: as §1

Kdn(a2-3)Gal(b1-4)Glc = target: Kdn(a2-3)Gal(b1-4)Glc
Summary of the method: as §1

Kdn(a2-3)Gal(b1-4)GlcNAc = target: Kdn(a2-3)Gal(b1-4)GlcNAc
Summary of the method: as §1

[17] = target: Kdn(a2-3)Gal(b1-4)[Fuc(a1-3)]GlcNAc
Summary of the method: as §1

Kdn(a2-6)Gal(b1-4)GlcNAc = target: Kdn(a2-6)Gal(b1-4)GlcNAc
Summary of the method: as §1

[18] = target: Man(a1-2)Man(a1-2)Man(a1-3)Man
Summary of the method: as §1

[19] = target: Man(a1-2)Man(a1-2)Man(a1-6)[Man(a1-3)]Man
Summary of the method: as §1

Man(a1-2)Man(a1-3)Man = target: Man(a1-2)Man(a1-3)Man
Summary of the method: as §1

[20] = target: Man(a1-2)Man(a1-3)[Man(a1-2)Man(a1-6)]Man
Summary of the method: as §1

[21] = target: Man(a1-2)Man(a1-3)[Man(a1-2)Man(a1-6)]Man(a1-6)[Man(a1-2)Man(a1-2)Man(a1-3)]Man
Summary of the method: as §1

[22] = target: Man(a1-2)Man(a1-3)[Man(a1-2)Man(a1-6)]Man(a1-6)[Man(a1-2)Man(a1-2)Man(a1-3)]Man(b1-4)GlcNAc(b1-4)GlcNAc
Summary of the method: as §1

[23] = target: Man(a1-2)Man(a1-3)[Man(a1-6)]Man(a1-6)[Man(a1-2)Man(a1-3)]Man(b1-4)GlcNAc(b1-4)GlcNAc
Summary of the method: as §1

[24] = target: Man(a1-2)Man(a1-6)[Man(a1-3)]Man(a1-6)[Man(a1-2)Man(a1-2)Man(a1-3)]Man
Summary of the method: as §1

[25] = target: Man(a1-2)Man(a1-6)[Man(a1-3)]Man(a1-6)[Man(a1-2)Man(a1-2)Man(a1-3)]Man(b1-4)GlcNAc(b1-4)GlcNAc
Summary of the method: as §1

Man(a1-3)[Man(a1-6)]Man = target: Man(a1-3)[Man(a1-6)]Man
Summary of the method: as §1

[26] = target: Man(a1-3)[Man(a1-6)]Man(a1-6)[Man(a1-2)Man(a1-3)]Man(b1-4)GlcNAc(b1-4)GlcNAc
Summary of the method: as §1

[27] = target: Man(a1-3)[Man(a1-6)]Man(a1-6)[Man(a1-3)]Man
Summary of the method: as §1

[28] = target: Man(a1-3)[Man(a1-6)]Man(a1-6)[Man(a1-3)]Man(b1-4)GlcNAc(b1-4)GlcNAc
Summary of the method: as §1

[29] = target: Man(a1-3)[Man(a1-6)]Man(b1-4)GlcNAc(b1-4)GlcNAc
Summary of the method: as §1

[30] = target: Man(a1-3)[Man(a1-6)]Man(b1-4)GlcNAc(b1-4)[Fuc(a1-6)]GlcNAc
Summary of the method: as §1

Man(a1-6)Man = target: Man(a1-6)Man
Summary of the method: as §1

Man(b1-4)GlcNAc = target: Man(b1-4)GlcNAc
Summary of the method: as §1

MurNAc(b1-4)GlcNAc = target: MurNAc(b1-4)GlcNAc
Summary of the method: as §1

Neu5Ac(a2-3)Gal = target: Neu5Ac(a2-3)Gal
Summary of the method: as §1

B1: ArathEULS3 TAP (Arabidopsis thaliana) (protein)
chain: IDENLYFQGGSMDEKTTGWRGGHVVEGLAGELEQLRARLEHHPQGQREPGGGGSLEITSLYKKAGFMEHHHQHHRHHQRDDGEDDRQSFGVPPPHVDAPPQPHGLYQSQPHFDPYAPTPQAPAPYRSETQFEPHAPPPYRSEPYFETPAPPPSFGHVSHVGHQSPNESYPPEHHRYGGYQQPSNSLLESHGDHSGVTHVAHHSSNQPQSSSGVYHKPDENRLPDNLAGLAGRATVKVYSKAEPNYNLTIRDGKVILAPADPSDEAQHWYKDEKYSTKVKDADGHPCFALVNKATGEAMKHSVGATHPVHLIRYVPDKLDESVLWTESKDFGDGYRTIRMVNNTRLNVDAYHGDSKSGGVRDGTTIVLWDWNKGDNQLWKIFPF
For B1, the “glycan array binding signal (z-score)” value [1] was 0.432, the “glycan array binding signal (z-score)” value [2] was -0.81 and the “glycan array binding signal (z-score)” value [3] was 0.844. For the same binder, the “glycan array binding signal (z-score)” value [4] was -0.045, the “glycan array binding signal (z-score)” value [5] was -0.321 and the “glycan array binding signal (z-score)” value [6] was -1. For the same binder, the “glycan array binding signal (z-score)” value (GlcNAc(b1-3)GalNAc) was -0.34, the “glycan array binding signal (z-score)” value (GlcNAc(b1-3)Man) was 0.29 and the “glycan array binding signal (z-score)” value [7] was 2.06. The “glycan array binding signal (z-score)” value [8] was 1.04, the “glycan array binding signal (z-score)” value [9] was -0.998 and the “glycan array binding signal (z-score)” value [10] was -0.159. For the same binder, the “glycan array binding signal (z-score)” value (GlcNAc(b1-4)GlcNAc) was 0.04, the “glycan array binding signal (z-score)” value [11] was -1.3 and the “glycan array binding signal (z-score)” value [12] was 0.495. For the same binder, the “glycan array binding signal (z-score)” value [13] was 1.42, the “glycan array binding signal (z-score)” value [14] was 0.748 and the “glycan array binding signal (z-score)” value [15] was 0.29. For the same binder, the “glycan array binding signal (z-score)” value (GlcNAc(b1-6)GalNAc) was -0.683, the “glycan array binding signal (z-score)” value [16] was 1.45 and the “glycan array binding signal (z-score)” value (Kdn(a2-3)Gal(b1-3)GalNAc) was 0.204. The “glycan array binding signal (z-score)” value (Kdn(a2-3)Gal(b1-3)GlcNAc) was -0.135, the “glycan array binding signal (z-score)” value (Kdn(a2-3)Gal(b1-4)Glc) was 0.205 and the “glycan array binding signal (z-score)” value (Kdn(a2-3)Gal(b1-4)GlcNAc) was 0.091. The “glycan array binding signal (z-score)” value [17] was 0.083, the “glycan array binding signal (z-score)” value (Kdn(a2-6)Gal(b1-4)GlcNAc) was 0.575 and the “glycan array binding signal (z-score)” value [18] was -1.3. The “glycan array binding signal (z-score)” value [19] was 1.32, the “glycan array binding signal (z-score)” value (Man(a1-2)Man(a1-3)Man) was -1.46 and the “glycan array binding signal (z-score)” value [20] was -0.663. For the same binder, the “glycan array binding signal (z-score)” value [21] was -0.658, the “glycan array binding signal (z-score)” value [22] was -0.311 and the “glycan array binding signal (z-score)” value [23] was 0.764. For the same binder, the “glycan array binding signal (z-score)” value [24] was -1.41, the “glycan array binding signal (z-score)” value [25] was -1.48 and the “glycan array binding signal (z-score)” value (Man(a1-3)[Man(a1-6)]Man) was 0.692. For the same binder, the “glycan array binding signal (z-score)” value [26] was 0.556, the “glycan array binding signal (z-score)” value [27] was 1.16 and the “glycan array binding signal (z-score)” value [28] was 3.03. The “glycan array binding signal (z-score)” value [29] was -0.083, the “glycan array binding signal (z-score)” value [30] was -0.665 and the “glycan array binding signal (z-score)” value (Man(a1-6)Man) was -1.26. For the same binder, the “glycan array binding signal (z-score)” value (Man(b1-4)GlcNAc) was -0.658, the “glycan array binding signal (z-score)” value (MurNAc(b1-4)GlcNAc) was 0.198 and the “glycan array binding signal (z-score)” value (Neu5Ac(a2-3)Gal) was -1.33.
